No constants are given. Whether binding was seen depends on the method and setting. Binding seen in cells or lysates may run through a third protein. These calls come from enrichment with a bait or labelling near it, and not all partners need be listed.
Target: Heat shock protein (Hsp) 90 (human (endogenous in THP-1)) (UniProt P07900)
Experiment: affinity purification with mass spectrometry; co-IP with anti-Hsp90 antibody from lysate of ATRA-stimulated THP-1 cells; SDS-PAGE, Coomassie; five main bands excised, trypsin digested and identified by LC-MS/MS

By UniProt entry, the sequences of proteins in these tests, tags left out. Residues count along the entry.
UniProt P04114, residues 28-4563: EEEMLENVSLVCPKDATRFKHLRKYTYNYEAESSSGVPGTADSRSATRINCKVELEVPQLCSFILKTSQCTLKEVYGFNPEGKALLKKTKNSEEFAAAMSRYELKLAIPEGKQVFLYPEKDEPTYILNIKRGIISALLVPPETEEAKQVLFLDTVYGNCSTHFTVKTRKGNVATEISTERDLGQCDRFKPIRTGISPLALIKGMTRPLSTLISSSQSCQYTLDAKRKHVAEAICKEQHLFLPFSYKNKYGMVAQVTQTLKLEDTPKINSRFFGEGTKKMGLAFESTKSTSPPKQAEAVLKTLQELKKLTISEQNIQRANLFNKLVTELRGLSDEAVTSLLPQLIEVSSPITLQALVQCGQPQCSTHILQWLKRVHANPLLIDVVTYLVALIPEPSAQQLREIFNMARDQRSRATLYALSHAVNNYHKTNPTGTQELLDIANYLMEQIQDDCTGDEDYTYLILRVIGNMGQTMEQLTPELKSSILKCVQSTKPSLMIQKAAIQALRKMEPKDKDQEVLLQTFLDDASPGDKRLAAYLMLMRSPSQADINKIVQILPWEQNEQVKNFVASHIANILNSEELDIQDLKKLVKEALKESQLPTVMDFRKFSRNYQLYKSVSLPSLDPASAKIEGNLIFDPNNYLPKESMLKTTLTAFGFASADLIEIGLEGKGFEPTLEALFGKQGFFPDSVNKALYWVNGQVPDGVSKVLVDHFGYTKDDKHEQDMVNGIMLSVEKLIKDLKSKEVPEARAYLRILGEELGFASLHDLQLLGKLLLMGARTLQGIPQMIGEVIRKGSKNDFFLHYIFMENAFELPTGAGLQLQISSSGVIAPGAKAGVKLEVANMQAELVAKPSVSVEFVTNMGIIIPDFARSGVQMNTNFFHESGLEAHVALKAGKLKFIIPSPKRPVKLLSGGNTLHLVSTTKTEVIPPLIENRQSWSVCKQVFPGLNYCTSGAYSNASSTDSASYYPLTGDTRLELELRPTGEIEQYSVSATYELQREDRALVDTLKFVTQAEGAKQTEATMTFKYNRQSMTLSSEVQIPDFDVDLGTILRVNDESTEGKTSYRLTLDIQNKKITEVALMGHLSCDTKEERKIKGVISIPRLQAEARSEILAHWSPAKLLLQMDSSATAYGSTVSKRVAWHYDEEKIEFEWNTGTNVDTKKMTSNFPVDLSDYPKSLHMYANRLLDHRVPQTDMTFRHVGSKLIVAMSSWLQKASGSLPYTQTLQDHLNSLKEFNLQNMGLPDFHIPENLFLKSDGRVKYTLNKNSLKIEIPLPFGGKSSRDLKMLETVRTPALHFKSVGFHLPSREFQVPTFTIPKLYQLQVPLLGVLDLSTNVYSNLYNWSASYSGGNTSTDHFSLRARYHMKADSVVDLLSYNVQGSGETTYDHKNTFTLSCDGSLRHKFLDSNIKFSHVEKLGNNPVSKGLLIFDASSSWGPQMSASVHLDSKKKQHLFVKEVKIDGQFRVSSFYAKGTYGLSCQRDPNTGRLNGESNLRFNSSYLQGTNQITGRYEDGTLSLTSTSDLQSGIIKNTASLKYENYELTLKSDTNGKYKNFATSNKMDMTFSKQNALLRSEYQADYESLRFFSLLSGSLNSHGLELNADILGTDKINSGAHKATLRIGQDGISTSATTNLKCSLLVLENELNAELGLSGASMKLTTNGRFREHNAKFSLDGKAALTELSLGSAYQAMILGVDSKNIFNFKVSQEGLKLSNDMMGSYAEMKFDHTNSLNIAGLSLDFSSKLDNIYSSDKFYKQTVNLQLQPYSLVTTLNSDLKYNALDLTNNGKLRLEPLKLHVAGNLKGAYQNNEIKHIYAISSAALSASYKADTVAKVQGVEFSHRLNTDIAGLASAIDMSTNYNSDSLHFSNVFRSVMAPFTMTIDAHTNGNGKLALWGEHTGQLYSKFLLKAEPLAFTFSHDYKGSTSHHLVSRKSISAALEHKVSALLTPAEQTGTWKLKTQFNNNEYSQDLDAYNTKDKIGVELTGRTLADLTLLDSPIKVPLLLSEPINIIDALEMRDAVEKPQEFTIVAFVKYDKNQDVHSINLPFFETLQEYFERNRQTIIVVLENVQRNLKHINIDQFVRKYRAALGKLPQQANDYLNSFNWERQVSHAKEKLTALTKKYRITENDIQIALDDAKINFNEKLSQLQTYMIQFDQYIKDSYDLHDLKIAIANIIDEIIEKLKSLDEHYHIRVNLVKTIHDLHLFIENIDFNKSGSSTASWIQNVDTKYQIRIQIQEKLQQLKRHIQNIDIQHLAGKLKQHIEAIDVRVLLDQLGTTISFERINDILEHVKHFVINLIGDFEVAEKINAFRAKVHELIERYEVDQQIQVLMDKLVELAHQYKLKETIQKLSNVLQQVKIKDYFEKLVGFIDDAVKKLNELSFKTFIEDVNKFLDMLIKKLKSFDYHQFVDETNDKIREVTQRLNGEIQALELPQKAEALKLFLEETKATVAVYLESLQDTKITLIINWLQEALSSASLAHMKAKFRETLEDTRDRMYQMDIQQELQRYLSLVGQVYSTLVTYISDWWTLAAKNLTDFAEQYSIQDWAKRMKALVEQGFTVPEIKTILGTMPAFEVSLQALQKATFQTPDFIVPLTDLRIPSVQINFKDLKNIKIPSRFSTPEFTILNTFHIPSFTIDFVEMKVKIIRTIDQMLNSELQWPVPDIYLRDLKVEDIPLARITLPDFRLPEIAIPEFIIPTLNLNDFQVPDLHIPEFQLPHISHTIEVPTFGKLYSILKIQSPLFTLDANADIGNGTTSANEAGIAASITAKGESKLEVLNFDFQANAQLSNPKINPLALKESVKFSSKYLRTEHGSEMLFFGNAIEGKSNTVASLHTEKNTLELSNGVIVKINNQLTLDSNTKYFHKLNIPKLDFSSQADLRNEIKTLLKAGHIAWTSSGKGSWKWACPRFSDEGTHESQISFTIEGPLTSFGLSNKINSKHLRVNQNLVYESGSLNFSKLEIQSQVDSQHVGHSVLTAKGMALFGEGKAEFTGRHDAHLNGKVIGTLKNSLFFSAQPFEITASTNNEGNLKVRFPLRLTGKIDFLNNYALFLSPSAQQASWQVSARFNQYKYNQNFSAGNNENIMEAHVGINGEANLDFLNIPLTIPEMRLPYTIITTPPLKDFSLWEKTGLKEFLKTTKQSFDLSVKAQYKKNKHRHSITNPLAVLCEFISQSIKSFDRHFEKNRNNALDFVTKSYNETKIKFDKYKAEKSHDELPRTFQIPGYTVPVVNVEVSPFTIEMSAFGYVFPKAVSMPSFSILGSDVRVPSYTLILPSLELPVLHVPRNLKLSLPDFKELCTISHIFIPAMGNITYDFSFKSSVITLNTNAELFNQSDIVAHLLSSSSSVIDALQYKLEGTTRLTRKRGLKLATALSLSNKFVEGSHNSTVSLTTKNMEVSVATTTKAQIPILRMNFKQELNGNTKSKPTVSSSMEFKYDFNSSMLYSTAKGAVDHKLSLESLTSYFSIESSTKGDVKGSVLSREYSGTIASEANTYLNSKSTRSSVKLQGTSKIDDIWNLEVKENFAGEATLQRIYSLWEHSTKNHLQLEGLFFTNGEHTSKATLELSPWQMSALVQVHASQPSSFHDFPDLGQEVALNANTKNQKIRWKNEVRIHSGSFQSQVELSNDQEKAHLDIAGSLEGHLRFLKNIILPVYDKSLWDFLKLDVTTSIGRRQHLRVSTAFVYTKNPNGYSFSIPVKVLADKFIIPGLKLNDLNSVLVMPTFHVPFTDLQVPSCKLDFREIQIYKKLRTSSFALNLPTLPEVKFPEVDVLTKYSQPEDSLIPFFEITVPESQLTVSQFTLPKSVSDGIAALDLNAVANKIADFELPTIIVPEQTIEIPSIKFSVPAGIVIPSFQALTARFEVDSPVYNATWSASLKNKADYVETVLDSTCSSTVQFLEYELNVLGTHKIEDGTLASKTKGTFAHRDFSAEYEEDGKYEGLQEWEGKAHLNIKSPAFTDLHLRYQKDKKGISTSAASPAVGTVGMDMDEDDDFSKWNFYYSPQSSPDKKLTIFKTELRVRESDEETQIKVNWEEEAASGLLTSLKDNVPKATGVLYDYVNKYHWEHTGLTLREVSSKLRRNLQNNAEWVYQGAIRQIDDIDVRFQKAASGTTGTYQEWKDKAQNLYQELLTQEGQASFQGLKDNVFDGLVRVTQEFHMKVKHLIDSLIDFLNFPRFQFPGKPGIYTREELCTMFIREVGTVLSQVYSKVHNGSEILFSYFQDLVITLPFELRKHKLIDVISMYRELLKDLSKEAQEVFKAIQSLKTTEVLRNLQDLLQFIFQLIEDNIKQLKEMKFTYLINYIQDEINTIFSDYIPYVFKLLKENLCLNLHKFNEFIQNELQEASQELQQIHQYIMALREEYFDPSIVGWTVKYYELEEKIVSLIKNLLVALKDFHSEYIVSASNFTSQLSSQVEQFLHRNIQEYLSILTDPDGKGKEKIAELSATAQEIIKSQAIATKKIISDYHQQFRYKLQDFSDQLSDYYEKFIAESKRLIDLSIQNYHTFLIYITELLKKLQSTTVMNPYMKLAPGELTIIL

binding: binds
Substance: apoprotein B (from UniProt P04114 28-4563)

— PMC9496951
